These results are taken from article PMC11730779.

Protein sequences, listed by entry. Tags and fused reporters are not part of them.
UniProt P11881: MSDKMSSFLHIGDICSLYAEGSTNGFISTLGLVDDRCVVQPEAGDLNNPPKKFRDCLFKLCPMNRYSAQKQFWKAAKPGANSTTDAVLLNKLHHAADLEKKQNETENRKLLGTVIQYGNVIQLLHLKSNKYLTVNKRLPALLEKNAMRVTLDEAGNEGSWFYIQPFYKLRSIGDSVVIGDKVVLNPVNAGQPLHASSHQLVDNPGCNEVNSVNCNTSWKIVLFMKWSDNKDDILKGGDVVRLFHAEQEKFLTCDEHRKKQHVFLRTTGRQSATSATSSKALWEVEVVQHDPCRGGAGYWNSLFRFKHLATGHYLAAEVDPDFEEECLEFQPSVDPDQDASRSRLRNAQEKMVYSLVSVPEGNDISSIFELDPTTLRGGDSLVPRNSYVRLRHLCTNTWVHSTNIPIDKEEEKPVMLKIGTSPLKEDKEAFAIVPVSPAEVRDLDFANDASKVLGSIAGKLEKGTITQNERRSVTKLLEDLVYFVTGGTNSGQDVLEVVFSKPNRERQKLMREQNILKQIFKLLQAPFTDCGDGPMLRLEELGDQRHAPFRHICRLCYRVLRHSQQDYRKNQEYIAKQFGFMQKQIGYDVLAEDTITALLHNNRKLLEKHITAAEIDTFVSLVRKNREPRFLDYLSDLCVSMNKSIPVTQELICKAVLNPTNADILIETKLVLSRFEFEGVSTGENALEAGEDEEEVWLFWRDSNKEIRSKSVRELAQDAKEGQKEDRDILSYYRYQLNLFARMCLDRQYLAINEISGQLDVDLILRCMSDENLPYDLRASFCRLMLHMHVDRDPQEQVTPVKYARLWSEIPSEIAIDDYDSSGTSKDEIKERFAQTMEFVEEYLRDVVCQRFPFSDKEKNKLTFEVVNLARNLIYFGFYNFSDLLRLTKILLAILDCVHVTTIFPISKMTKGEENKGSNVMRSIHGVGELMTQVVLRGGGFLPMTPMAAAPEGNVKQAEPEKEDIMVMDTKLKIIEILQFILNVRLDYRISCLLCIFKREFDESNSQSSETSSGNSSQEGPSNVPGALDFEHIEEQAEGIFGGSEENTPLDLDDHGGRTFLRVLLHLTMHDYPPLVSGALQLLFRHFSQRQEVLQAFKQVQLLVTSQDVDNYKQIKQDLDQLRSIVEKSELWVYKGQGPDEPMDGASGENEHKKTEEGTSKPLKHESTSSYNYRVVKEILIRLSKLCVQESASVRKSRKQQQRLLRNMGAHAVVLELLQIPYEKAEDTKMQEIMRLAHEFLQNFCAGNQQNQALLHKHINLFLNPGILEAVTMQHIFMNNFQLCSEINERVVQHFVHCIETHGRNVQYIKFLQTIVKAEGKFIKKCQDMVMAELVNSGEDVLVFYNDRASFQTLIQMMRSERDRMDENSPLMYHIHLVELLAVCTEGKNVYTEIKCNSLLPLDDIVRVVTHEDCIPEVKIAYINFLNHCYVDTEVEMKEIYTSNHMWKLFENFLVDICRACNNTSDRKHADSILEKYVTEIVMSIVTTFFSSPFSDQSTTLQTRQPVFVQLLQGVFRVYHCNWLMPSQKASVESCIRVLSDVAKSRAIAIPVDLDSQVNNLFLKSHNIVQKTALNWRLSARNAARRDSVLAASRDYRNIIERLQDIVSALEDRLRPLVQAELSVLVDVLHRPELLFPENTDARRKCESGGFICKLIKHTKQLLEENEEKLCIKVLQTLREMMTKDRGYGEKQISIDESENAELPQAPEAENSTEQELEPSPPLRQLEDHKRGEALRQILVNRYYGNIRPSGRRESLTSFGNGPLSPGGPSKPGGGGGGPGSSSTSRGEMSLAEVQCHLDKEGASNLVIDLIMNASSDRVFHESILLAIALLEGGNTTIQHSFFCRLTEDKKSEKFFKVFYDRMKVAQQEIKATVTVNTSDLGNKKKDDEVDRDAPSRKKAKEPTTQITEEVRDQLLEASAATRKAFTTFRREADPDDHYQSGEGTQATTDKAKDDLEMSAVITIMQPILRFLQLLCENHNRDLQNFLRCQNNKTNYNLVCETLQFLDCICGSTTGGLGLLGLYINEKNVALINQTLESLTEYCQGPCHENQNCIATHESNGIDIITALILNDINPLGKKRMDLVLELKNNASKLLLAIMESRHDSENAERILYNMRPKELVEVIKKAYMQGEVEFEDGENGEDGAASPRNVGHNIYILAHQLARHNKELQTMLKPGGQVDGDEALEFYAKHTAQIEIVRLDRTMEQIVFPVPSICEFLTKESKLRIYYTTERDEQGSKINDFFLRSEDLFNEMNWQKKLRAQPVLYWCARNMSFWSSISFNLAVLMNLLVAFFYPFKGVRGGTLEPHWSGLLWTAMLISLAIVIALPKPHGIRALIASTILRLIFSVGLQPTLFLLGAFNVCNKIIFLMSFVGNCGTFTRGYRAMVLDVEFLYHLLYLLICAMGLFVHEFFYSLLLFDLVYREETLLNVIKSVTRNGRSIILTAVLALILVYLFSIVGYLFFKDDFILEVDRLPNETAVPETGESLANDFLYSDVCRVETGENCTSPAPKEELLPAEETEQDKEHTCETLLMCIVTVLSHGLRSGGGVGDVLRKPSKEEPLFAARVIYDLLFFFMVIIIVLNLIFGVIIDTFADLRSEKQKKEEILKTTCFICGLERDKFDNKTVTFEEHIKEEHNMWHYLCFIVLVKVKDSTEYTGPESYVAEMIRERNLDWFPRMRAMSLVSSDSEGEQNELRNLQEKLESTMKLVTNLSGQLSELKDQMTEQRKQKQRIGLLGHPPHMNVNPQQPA
UniProt Q14643: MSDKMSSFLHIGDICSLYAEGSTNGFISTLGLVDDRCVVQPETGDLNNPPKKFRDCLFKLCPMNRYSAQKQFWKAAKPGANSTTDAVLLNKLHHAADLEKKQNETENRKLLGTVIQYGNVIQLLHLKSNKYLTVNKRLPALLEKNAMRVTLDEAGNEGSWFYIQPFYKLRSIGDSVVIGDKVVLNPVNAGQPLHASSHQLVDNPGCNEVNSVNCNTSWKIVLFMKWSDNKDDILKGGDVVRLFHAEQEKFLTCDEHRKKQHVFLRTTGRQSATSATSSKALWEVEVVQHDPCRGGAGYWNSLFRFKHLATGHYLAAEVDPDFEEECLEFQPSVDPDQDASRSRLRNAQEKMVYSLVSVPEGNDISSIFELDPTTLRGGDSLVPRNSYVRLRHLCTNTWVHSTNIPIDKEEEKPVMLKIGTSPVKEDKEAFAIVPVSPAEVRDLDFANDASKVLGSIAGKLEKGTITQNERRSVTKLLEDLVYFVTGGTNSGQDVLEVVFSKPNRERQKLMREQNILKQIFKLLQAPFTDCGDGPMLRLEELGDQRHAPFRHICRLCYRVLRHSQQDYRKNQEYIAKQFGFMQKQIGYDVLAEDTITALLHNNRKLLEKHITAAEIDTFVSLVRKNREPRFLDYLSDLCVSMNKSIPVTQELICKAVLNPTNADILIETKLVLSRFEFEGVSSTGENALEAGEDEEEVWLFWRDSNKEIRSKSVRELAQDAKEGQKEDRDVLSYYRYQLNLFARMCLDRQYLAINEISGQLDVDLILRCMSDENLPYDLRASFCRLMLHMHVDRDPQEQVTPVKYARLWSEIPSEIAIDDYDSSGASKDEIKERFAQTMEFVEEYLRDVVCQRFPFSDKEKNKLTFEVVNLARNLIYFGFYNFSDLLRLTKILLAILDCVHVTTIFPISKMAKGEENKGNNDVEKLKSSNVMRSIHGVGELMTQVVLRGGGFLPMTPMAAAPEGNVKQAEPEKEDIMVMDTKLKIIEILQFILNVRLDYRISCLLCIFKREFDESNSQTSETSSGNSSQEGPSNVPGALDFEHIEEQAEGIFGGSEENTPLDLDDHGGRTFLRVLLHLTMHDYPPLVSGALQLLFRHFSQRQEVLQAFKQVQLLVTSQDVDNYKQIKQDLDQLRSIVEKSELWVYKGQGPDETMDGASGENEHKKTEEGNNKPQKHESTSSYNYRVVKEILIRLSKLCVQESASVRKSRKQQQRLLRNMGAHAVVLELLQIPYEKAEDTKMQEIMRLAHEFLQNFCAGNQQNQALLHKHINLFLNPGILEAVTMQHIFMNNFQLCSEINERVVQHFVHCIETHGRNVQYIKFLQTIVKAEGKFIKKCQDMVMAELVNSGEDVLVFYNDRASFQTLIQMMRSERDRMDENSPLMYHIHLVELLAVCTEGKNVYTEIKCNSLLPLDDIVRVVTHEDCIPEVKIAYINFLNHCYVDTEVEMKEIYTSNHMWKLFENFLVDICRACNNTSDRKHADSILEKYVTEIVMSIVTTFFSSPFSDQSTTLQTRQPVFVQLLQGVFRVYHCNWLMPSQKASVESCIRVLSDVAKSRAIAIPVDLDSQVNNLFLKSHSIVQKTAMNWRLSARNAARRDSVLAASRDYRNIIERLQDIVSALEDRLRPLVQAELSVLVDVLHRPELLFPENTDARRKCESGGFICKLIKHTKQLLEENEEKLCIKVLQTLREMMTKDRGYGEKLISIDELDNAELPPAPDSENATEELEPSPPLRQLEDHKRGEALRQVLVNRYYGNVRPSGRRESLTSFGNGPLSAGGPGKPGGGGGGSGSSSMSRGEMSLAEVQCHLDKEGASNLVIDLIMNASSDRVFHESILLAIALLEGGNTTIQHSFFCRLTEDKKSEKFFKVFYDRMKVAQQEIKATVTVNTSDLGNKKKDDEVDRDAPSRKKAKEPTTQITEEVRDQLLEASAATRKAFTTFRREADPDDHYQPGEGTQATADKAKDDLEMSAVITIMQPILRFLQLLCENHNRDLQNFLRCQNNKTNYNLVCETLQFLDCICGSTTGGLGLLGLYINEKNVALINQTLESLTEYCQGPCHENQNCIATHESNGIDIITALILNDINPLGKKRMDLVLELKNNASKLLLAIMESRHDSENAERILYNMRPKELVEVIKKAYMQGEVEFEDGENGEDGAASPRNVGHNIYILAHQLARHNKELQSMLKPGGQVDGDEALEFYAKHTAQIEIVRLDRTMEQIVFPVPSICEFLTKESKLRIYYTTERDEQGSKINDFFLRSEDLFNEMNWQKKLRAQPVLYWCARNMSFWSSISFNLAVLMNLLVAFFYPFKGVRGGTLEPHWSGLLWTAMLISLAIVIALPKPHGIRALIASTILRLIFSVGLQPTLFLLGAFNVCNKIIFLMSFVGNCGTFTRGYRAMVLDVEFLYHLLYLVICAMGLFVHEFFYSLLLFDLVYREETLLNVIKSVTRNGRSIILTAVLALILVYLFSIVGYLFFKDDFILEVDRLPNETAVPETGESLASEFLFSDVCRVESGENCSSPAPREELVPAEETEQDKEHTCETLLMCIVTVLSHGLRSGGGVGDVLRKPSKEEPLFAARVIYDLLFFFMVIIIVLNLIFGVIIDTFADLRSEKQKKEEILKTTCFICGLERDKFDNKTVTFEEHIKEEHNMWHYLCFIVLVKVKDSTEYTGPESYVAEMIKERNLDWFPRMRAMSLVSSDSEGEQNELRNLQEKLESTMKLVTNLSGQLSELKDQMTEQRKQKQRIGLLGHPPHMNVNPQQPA

Results are given in words; binding and its absence hold for the method and conditions named. Binding seen in cells or lysates may run through a third protein. Some binding calls cover weakened binding; strength is not graded here.

Assay [1] deals with inositol 1,4,5-trisphosphate receptor type 1 (IP3R1), endogenous in mouse pituitary αT3 cells (mouse (endogenous in αT3)) (UniProt P11881). Put plainly: co-IP; endogenous proteins of WT αT3 cells (untreated or 100 nM CalA and/or 20 µM Fsk, 10 min); 1% CHAPS lysis buffer; anti-IP3R1 and protein A-Sepharose, ~16 h, 4 °C; Bok found by immunoblot (Bok antibodies, RRXpS) or mass spectrometry. For orientation: A western blot detects proteins with antibodies after separation by electrophoresis.

The target of assay [2] is IP3R1, endogenous in HEK-IP3R1 cells (human (endogenous in HEK-IP3R1)) (UniProt Q14643). Put plainly: co-IP; HEK-IP3R1 cells stably expressing Bok constructs; 1% CHAPS lysates; IP of endogenous IP3R1 with anti-IP3R1, immunoblot for Bok; for Bok^WT also after 1 µM PGE1 for 2.5 or 10 min.
Assay [3] has the same target. Put plainly: co-IP; IP3R1 IPs (Bok-IP3R1 complex on beads) from HEK-IP3R1 cells stably expressing Bok^WT, resuspended in phosphorylation buffer (120 mM KCl, 50 mM Tris, 1 mM MgCl2, 1 mM ATP, pH 7.2) without or with the catalytic subunit of PKA (1:100), 32 °C, 10 min; immunoblot for Bok.

B1: Bok (Bcl-2-related ovarian killer), endogenous in mouse pituitary αT3 cells (protein, UniProt O35425 1-213)
chain: MEVLRRSSVFAAEIMDAFDRSPTDKELVAQAKALGREYVHARLLRAGLSWSAPERASPAPGGRLAEVCTVLLRLGDELEQIRPSVYRNVARQLHIPLQSEPVVTDAFLAVAGHIFSAGITWGKVVSLYSVAAGLAVDCVRQAQPAMVHALVDCLGEFVRKTLATWLRRRGGWTDVLKCVVSTDPGFRSHWLVATLCSFGRFLKAAFFLLLPER
As to B1, the binding entry in assay [1] is given as “binds”.

B2: Bok phosphorylated at Ser-8, endogenous in αT3 cells treated with CalA and Fsk (protein, UniProt O35425 1-213)
chain: MEVLRRSSVFAAEIMDAFDRSPTDKELVAQAKALGREYVHARLLRAGLSWSAPERASPAPGGRLAEVCTVLLRLGDELEQIRPSVYRNVARQLHIPLQSEPVVTDAFLAVAGHIFSAGITWGKVVSLYSVAAGLAVDCVRQAQPAMVHALVDCLGEFVRKTLATWLRRRGGWTDVLKCVVSTDPGFRSHWLVATLCSFGRFLKAAFFLLLPER
modifications: phosphoserine at 8 (Ser-8)
As for B2, the binding result in assay [1] is “binds”.

B3: Bok^WT (exogenous wild-type Bok) (protein, UniProt Q9UMX3 1-212)
chain: MEVLRRSSVFAAEIMDAFDRSPTDKELVAQAKALGREYVHARLLRAGLSWSAPERAAPVPGRLAEVCAVLLRLGDELEMIRPSVYRNVARQLHISLQSEPVVTDAFLAVAGHIFSAGITWGKVVSLYAVAAGLAVDCVRQAQPAMVHALVDCLGEFVRKTLATWLRRRGGWTDVLKCVVSTDPGLRSHWLVAALCSFGRFLKAAFFVLLPER
For the molecule B3, the binding entry in assay [2] and in assay [3] was “binds” throughout.

B4: Bok^S8E (protein, UniProt Q9UMX3 1-212)
chain: MEVLRRSEVFAAEIMDAFDRSPTDKELVAQAKALGREYVHARLLRAGLSWSAPERAAPVPGRLAEVCAVLLRLGDELEMIRPSVYRNVARQLHISLQSEPVVTDAFLAVAGHIFSAGITWGKVVSLYAVAAGLAVDCVRQAQPAMVHALVDCLGEFVRKTLATWLRRRGGWTDVLKCVVSTDPGLRSHWLVAALCSFGRFLKAAFFVLLPER
With B4, in assay [2], the binding result was “binds”.

B5: Bok^S8A (protein, UniProt Q9UMX3 1-212)
chain: MEVLRRSAVFAAEIMDAFDRSPTDKELVAQAKALGREYVHARLLRAGLSWSAPERAAPVPGRLAEVCAVLLRLGDELEMIRPSVYRNVARQLHISLQSEPVVTDAFLAVAGHIFSAGITWGKVVSLYAVAAGLAVDCVRQAQPAMVHALVDCLGEFVRKTLATWLRRRGGWTDVLKCVVSTDPGLRSHWLVAALCSFGRFLKAAFFVLLPER
B5: the binding entry in assay [2] was “binds”.

B6: Bok^WT phosphorylated at Ser-8 (exogenous) (protein, UniProt Q9UMX3 1-212)
chain: MEVLRRSSVFAAEIMDAFDRSPTDKELVAQAKALGREYVHARLLRAGLSWSAPERAAPVPGRLAEVCAVLLRLGDELEMIRPSVYRNVARQLHISLQSEPVVTDAFLAVAGHIFSAGITWGKVVSLYAVAAGLAVDCVRQAQPAMVHALVDCLGEFVRKTLATWLRRRGGWTDVLKCVVSTDPGLRSHWLVAALCSFGRFLKAAFFVLLPER
modifications: phosphoserine at 8 (Ser-8)
On to B6, for which the binding entry in assay [2] and in assay [3] was “binds” in each case.
